# Assay results taken from patent US7794995B2, “Purified PKB Ser 473 kinase and uses thereof” (priority 2002, dated 2010).
# System: PKB Ser473 kinase
# Details: first of two kinase activities in the partially purified fraction; 0-100 microM tested
structure (smiles),measurement,value
CN[C@@H]1C[C@H]2O[C@@](C)([C@@H]1OC)n1c3ccccc3c3c4c(c5c6ccccc6n2c5c31)C(=O)NC4 [staurosporine],"Staurosporine concentration at which inhibition was observed, acutely sensitive kinase activity",1 nM
